Measured values taken from article PMC6156083.
Results are given in words; binding and its absence hold for the method and conditions named. Binding seen in cells or lysates may run through a third protein. A yes stands for co-enrichment or nearness to the bait. Other partners may have been found.

By UniProt entry, the sequences of proteins in these tests, tags left out. Where a name states a change or a piece, a line headed by the entry shows the natural chain unless it says otherwise. Residues count along the entry.
UniProt Q9NR31: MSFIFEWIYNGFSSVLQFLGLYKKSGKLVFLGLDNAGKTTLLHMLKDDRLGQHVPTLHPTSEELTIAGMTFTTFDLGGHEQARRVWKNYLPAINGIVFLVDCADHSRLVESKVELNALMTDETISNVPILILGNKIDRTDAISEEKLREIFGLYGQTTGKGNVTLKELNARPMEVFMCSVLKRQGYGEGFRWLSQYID
UniProt Q8NBP7: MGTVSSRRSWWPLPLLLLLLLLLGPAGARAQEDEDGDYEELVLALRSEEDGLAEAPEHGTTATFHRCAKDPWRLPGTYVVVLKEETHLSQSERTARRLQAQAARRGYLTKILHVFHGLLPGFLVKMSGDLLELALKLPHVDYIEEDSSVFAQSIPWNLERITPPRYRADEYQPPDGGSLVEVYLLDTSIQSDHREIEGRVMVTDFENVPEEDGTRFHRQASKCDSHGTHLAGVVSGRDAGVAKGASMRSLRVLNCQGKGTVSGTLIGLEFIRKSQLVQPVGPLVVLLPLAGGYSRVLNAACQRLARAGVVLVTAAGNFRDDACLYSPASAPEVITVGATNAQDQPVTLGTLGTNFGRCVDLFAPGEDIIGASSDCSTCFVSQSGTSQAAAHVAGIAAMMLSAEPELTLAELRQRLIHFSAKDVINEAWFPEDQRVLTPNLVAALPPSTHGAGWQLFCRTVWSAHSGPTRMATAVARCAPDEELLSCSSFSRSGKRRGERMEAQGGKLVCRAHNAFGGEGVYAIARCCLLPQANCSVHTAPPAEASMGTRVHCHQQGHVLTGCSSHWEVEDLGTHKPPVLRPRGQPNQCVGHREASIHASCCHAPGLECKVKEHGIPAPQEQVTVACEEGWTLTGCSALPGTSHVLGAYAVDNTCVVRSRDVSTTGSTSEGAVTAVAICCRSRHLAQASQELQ
UniProt Q9Y6B6: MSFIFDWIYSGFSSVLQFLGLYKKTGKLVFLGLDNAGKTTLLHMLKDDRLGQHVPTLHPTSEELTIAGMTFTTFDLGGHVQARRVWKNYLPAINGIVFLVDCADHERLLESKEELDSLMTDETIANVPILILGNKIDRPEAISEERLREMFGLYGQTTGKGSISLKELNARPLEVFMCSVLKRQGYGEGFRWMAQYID
UniProt P01009, residues 25-418: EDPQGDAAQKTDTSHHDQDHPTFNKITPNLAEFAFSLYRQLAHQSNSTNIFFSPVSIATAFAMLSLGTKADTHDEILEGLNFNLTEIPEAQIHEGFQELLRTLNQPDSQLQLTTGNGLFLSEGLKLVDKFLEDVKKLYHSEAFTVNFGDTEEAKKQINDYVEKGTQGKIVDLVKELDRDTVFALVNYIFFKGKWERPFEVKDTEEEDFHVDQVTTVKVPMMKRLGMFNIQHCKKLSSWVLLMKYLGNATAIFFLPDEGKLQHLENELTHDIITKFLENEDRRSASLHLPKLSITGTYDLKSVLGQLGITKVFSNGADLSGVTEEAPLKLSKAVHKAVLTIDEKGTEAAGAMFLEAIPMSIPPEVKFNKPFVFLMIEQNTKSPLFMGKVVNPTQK
UniProt O15260: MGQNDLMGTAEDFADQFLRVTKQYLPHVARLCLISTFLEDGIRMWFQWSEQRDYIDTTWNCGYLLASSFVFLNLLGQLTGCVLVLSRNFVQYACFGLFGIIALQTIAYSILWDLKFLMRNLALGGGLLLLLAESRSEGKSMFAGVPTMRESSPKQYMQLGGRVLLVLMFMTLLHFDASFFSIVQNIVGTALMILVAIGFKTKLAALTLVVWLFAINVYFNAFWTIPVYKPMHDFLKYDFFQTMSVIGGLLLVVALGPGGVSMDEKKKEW

Columns and labels:
Assay in all cases: proximity labelling; BioID: BirA*-fused bait expressed in stable HEK293 Flp-In T-REx cells, tetracycline 1 ug/mL and biotin 50 uM for 24 hr; biotinylated proteins purified on streptavidin-agarose, on-bead trypsin digest, mass spectrometry; SAINT BFDR <=1% against negative control samples; biological duplicates
[1] = biological target: SAR1A-BirA* fusion (UniProt Q9NR31)
[2] = biological target: PCSK9-BirA* fusion (PCSK9 fused to the mutant biotin ligase E. coli BirA*(R118G)) (human) (UniProt Q8NBP7)
[3] = biological target: SAR1B-BirA* fusion (UniProt Q9Y6B6)
[4] = biological target: alpha-1 antitrypsin-BirA* fusion (human) (UniProt P01009)

Row | binding [1] | binding [2] | binding [3] | binding [4] | Molecule
1 | binds | binds | binds | – | SURF4 (endogenous prey in BioID) (from UniProt O15260 1-269) (receptor)
2 | – | – | – | binds | LMAN1 (endogenous prey in BioID) (receptor, UniProt P49257 31-510, biotinylated on primary amines by BirA* (sites not given)) DGVGGDPAVALPHRRFEYKYSFKGPHLVQSDGTVPFWAHAGNAIPSSDQIRVAPSLKSQRGSVWTKTKAAFENWEVEVTFRVTGRGRIGADGLAIWYAENQGLEGPVFGSADLWNGVGIFFDSFDNDGKKNNPAIVIIGNNGQIHYDHQNDGASQALASCQRDFRNKPYPVRAKITYYQNTLTVMINNGFTPDKNDYEFCAKVENMIIPAQGHFGISAATGGLADDHDVLSFLTFQLTEPGKEPPTPDKEISEKEKEKYQEEFEHFQQELDKKKEEFQKGHPDLQGQPAEEIFESVGDRELRQVFEGQNRIHLEIKQLNRQLDMILDEQRRYVSSLTEEISKRGAGMPGQHGQITQQELDTVVKTQHEILRQVNEMKNSMSETVRLVSGMQHPGSAGGVYETTQHFIDIKEHLHIVKRDIDNLVQRNMPSNEKPKCPELPPFPSCLSTVHFIIFVVVQTVLFIGYIMYRSQQEAAAKKFF
